Assay results from the supplement of paper PMC10105736.
The list shows a part of the results, in another mix than the full data. The list shows a part of the results.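 The calls were made as follows: active = MAPPIT score above the 99th percentile of random reference set scores in the same batch; inactive = at or below it.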

B1: D (protein)
chain: MATLSTHPNYGFHLGQAQGLEDYAPQSQLQLSPGMDMDIKRVLHYSQSLAAMGGSPNGPAGQGVNGSSGMGHHMSSHMTPHHMHQAVSAQQTLSPNSSIGSAGSLGSQSSLGSNGSGLNSSSGHQSAGMHSLATSPGQEGHIKRPMNAFMVWSRLQRRQIAKDNPKMHNSEISKRLGAEWKLLAESEKRPFIDEAKRLRALHMKEHPDYKYRPRRKPKNPLTAGPQGGLQMQAGGMGQQKLGAGPGAGAGGYNPFHQLPPYFAPSHHLDQGYPVPYFGGFDPLALSKLHQSQAAAAAAVNNQGQQQGQAPPQLPPTSLSSFYSGIYSGISAPSLYAAHSANAAGLYPSSSTSSPGSSPGTITPNGMDGSMDSALRRPVPVLY
B2: ey (protein)
chain: MRNLPCLGTAGGSGLGGIAGKPSPTMEAVEASTASHRHSTSSYFATTYYHLTDDECHSGVNQLGGVFVGGRPLPDSTRQKIVELAHSGARPCDISRILQVSNGCVSKILGRYYETGSIRPRAIGGSKPRVATAEVVSKISQYKRECPSIFAWEIRDRLLQENVCTNDNIPSVSSINRVLRNLAAQKEQQSTGSGSSSTSAGNSISAKVSVSIGGNVSNVASGSRGTLSSSTDLMQTATPLNSSESGGASNSGEGSEQEAIYEKLRLLNTQHAAGPGPLEPARAAPLVGQSPNHLGTRSSHPQLVHGNHQALQQHQQQSWPPRHYSGSWYPTSLSEIPISSAPNIASVTAYASGPSLAHSLSPPNDIESLASIGHQRNCPVATEDIHLKKELDGHQSDETGSGEGENSNGGASNIGNTEDDQARLILKRKLQRNRTSFTNDQIDSLEKEFERTHYPDVFARERLAGKIGLPEARIQVWFSNRRAKWRREEKLRNQRRTPNSTGASATSSSTSATASLTDSPNSLSACSSLLSGSAGGPSVSTINGLSSPSTLSTNVNAPTLGAGIDSSESPTPIPHIRPSCTSDNDNGRQSEDCRRVCSPCPLGVGGHQNTHHIQSNGHAQGHALVPAISPRLNFNSGSFGAMYSNMHHTALSMSDSYGAVTPIPSFNHSAVGPLAPPSPIPQQGDLTPSSLYPCHMTLRPPPMAPAHHHIVPGDGGRPAGVGLGSGQSANLGASCSGSGYEVLSAYALPPPPMASSSAADSSFSAASSASANVTPHHTIAQESCPSPCSSASHFGVAHSSGFSSDPISPAVSSYAHMSYNYASSANTMTPSSASGTSAHVAPGKQQFFASCFYSPWV

What was measured:
Assay in all cases: MAPPIT interaction score (arbitrary units); higher = stronger binary interaction signal, active = hit call of the paper
[1] = biological target: CG15771; settings: MAPPIT configuration: N-N; pair source set: screen_1
Method: (§1)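 MAPPIT in HEK293T cells: Drosophila bait and prey ORFs (from the FlyBi ORF collection) were co-transfected in quadruplicate, with two wells stimulated by erythropoietin. Interaction-dependent JAK-STAT activation was read out with a STAT-responsive firefly luciferase reporter. Positive calls use the 99th percentile of random reference set (RRS) scores within each batch […]. Batches Dvs01 and Dvs02 used the N-N configuration and Dvs04 the N-C configuration. Pairs come from FlyBi screens, CuraGen, DPiM, Finley Y2H, Lit-BM-16, Lit-BS-16 and RRS.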

[2] = biological target: CG34453; settings: MAPPIT configuration: N-C; pair source set: screen_4
Method: as §1

[3] = biological target: D; settings: MAPPIT configuration: N-N; pair source set: screen_2
Method: as §1

[4] = biological target: hbn; settings: MAPPIT configuration: N-N; pair source set: screen_2
Method: as §1

[5] = biological target: Dyb; settings: MAPPIT configuration: N-N; pair source set: screen_2
Method: as §1
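Also: HEK293T cells with Epo stimulation, STAT-responsive firefly luciferase reporter, fold induction versus unstimulated cells divided by the larger fold induction of two negative controls lacking either bait or prey.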

| Binder | MAPPIT interaction score [1] | MAPPIT interaction score [2] | MAPPIT interaction score [3] | MAPPIT interaction score [4] | MAPPIT interaction score [5] |
| --- | --- | --- | --- | --- | --- |
| B1 | inactive: 1.69 | inactive: 2.42 | inactive: -1.14 | inactive: -0.946 | – |
| B2 | – | – | – | – | inactive: -0.142 |
